Measured data: PubChem BioAssay AID1259254 (NCATS, 2017)
This is a random part of about 59,000 reagents tested. In the full data, about 1,550 (2.6%) are marked active. 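G2 share is only a proxy for re-replication; each gene was hit by three separate siRNAs, and active genes were retested.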 Raw values are not corrected between plates. The numbers tell different reagents against one gene apart. Not given: the amount of reagent.

Test: 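Genome-wide screen for genes that prevent DNA re-replication in cancer cells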 (primary screen)
Cells: human HCT116 colorectal cancer cells
Knock-down reagent: single siRNA against human genes
Timing: 3 days
Measurement: 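Imaged Hoechst DNA stain sorts each cell into a cycle phase by DNA amount; per plate, G2 fraction set to 0% for non-targeting and 100% for GMNN siRNA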
Direction: G2 robust z-score and G2 cells, % of GMNN control: higher = more G2 cells, more excess DNA replication; raw share of cells in G2: higher = larger share of cells with G2 DNA content
Hit rule: 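An siRNA counts as active if its G2 robust z-score lies at least 5 MADs above the screen median; here such calls match roughly 38% of GMNN control or more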

| gene | siRNA no. | G2 robust z-score | G2 cells, % of GMNN control | raw share of cells in G2 (%) | activity call |
| --- | --- | --- | --- | --- | --- |
| TMEM97 | 1 | 0.295 | 5.04 | 5.78 | inactive |
| TMEM97 | 2 | -0.307 | 0.809 | 4.85 | inactive |
| TMEM97 | 3 | -0.361 | 0.426 | 3.39 | inactive |
| SFTPA1 | 1 | 6.35 | 47.6 | 16.9 | active |
| SFTPA1 | 2 | -0.208 | 1.51 | 3.98 | inactive |
| SFTPA1 | 3 | -0.00231 | 2.95 | 4.26 | inactive |
| PSMC1 | 1 | 3.13 | 25 | 13.6 | inactive |
| PSMC1 | 2 | 0.329 | 5.28 | 6.7 | inactive |
| PSMC1 | 3 | 1.45 | 13.1 | 8.51 | inactive |
| KLRK1 | 1 | -0.18 | 1.7 | 5.65 | inactive |
| KLRK1 | 2 | -0.515 | -0.656 | 3.86 | inactive |
| KLRK1 | 3 | -0.246 | 1.24 | 3.64 | inactive |
| ALG1L8P | 1 | 1.7 | 14.9 | 9.31 | inactive |
| ALG1L8P | 2 | -0.848 | -3 | 2.19 | inactive |
| ALG1L8P | 3 | 0.182 | 4.25 | 4.38 | inactive |
| CCNYL2 | 1 | 2.7 | 22 | 11.8 | inactive |
| CCNYL2 | 2 | 1.05 | 10.3 | 7.62 | inactive |
| CCNYL2 | 3 | -0.0369 | 2.71 | 5.91 | inactive |
| CRYM | 1 | -0.306 | 0.814 | 5.29 | inactive |
| CRYM | 2 | 0.697 | 7.87 | 6.81 | inactive |
| CRYM | 3 | 1.88 | 16.2 | 10.7 | inactive |
| C22orf42 | 1 | -0.689 | -1.88 | 3.2 | inactive |
| C22orf42 | 2 | -0.831 | -2.88 | 2.02 | inactive |
| C22orf42 | 3 | -0.228 | 1.36 | 3.54 | inactive |
| ZNF165 | 1 | -1.08 | -4.63 | 3.64 | inactive |
| ZNF165 | 2 | -1.19 | -5.42 | 2.69 | inactive |
| ZNF165 | 3 | 0.59 | 7.12 | 6.91 | inactive |
| LAPTM5 | 1 | -0.326 | 0.67 | 5.43 | inactive |
| LAPTM5 | 2 | -0.155 | 1.88 | 4.64 | inactive |
| LAPTM5 | 3 | 2.82 | 22.8 | 11.4 | inactive |
| CAMKK2 | 1 | -1.62 | -8.45 | 2.96 | inactive |
| CAMKK2 | 2 | -0.286 | 0.956 | 3.99 | inactive |
| CAMKK2 | 3 | -0.127 | 2.07 | 5.95 | inactive |
| PDIA2 | 1 | -0.343 | 0.555 | 5.88 | inactive |
| PDIA2 | 2 | -1.24 | -5.76 | 2.31 | inactive |
| PDIA2 | 3 | 0.697 | 7.87 | 7.08 | inactive |
| FCAR | 1 | 0.118 | 3.8 | 6.62 | inactive |
| FCAR | 2 | -0.18 | 1.7 | 5.91 | inactive |
| FCAR | 3 | 0.665 | 7.65 | 6.38 | inactive |
| CLDN6 | 1 | -0.0851 | 2.37 | 4.31 | inactive |
| CLDN6 | 2 | -1.08 | -4.65 | 3.92 | inactive |
| CLDN6 | 3 | 0.288 | 4.99 | 5.43 | inactive |
| RPL10A | 1 | 4.05 | 31.4 | 18.3 | inactive |
| RPL10A | 2 | 3.86 | 30.1 | 16.1 | inactive |
| RPL10A | 3 | 3.14 | 25 | 12.4 | inactive |
| FUT3 | 1 | 6.89 | 51.5 | 23.9 | active |
| FUT3 | 2 | -0.99 | -4 | 3.74 | inactive |
| FUT3 | 3 | 0.433 | 6.01 | 5.8 | inactive |
| C1QTNF7 | 1 | 3.5 | 27.6 | 15.1 | inactive |
| C1QTNF7 | 2 | 3.13 | 25 | 10.8 | inactive |
| C1QTNF7 | 3 | -0.246 | 1.23 | 2.18 | inactive |
| RBM8A | 1 | -1.42 | -7.01 | 0.806 | inactive |
| RBM8A | 2 | 3.17 | 25.3 | 15 | inactive |
| RBM8A | 3 | 1.53 | 13.7 | 10.4 | inactive |
| ZBTB20 | 1 | -0.224 | 1.39 | 4.45 | inactive |
| ZBTB20 | 2 | -0.437 | -0.107 | 6.12 | inactive |
| ZBTB20 | 3 | -0.0939 | 2.31 | 4.95 | inactive |
| LOC646388 | 1 | -0.589 | -1.18 | 2.67 | inactive |
| LOC646388 | 2 | 0.0603 | 3.39 | 5.06 | inactive |
| LOC646388 | 3 | 1.43 | 13 | 8.05 | inactive |
| OVCH2 | 1 | -0.19 | 1.63 | 6.29 | inactive |
| OVCH2 | 2 | 7.69 | 57.1 | 23.3 | active |
| OVCH2 | 3 | 0.267 | 4.84 | 6.06 | inactive |
| MAGEC2 | 1 | -1.57 | -8.08 | 0.711 | inactive |
| MAGEC2 | 2 | 1.31 | 12.2 | 9.41 | inactive |
| MAGEC2 | 3 | 1.11 | 10.8 | 6.76 | inactive |
| SIRT4 | 1 | 0.386 | 5.68 | 8.65 | inactive |
| SIRT4 | 2 | -0.377 | 0.315 | 4.26 | inactive |
| SIRT4 | 3 | -0.0454 | 2.65 | 4.77 | inactive |

Entries listed so far whose gene name starts with K or k (3):
| gene | siRNA no. | G2 robust z-score | G2 cells, % of GMNN control | raw share of cells in G2 (%) | activity call |
| --- | --- | --- | --- | --- | --- |
| KLRK1 | 1 | -0.18 | 1.7 | 5.65 | inactive |
| KLRK1 | 2 | -0.515 | -0.656 | 3.86 | inactive |
| KLRK1 | 3 | -0.246 | 1.24 | 3.64 | inactive |
